Data on one compound can be found in ChEMBL document CHEMBL1127882, “Synthesis of coumarins as subtype-selective inhibitors of monoamine oxidase” (Bioorg Med Chem Lett, 1994).

This assay deals with T1, Amine oxidase [flavin-containing] B (Rattus norvegicus, UniProt P19643).
T1 sequence (P19643 whole entry): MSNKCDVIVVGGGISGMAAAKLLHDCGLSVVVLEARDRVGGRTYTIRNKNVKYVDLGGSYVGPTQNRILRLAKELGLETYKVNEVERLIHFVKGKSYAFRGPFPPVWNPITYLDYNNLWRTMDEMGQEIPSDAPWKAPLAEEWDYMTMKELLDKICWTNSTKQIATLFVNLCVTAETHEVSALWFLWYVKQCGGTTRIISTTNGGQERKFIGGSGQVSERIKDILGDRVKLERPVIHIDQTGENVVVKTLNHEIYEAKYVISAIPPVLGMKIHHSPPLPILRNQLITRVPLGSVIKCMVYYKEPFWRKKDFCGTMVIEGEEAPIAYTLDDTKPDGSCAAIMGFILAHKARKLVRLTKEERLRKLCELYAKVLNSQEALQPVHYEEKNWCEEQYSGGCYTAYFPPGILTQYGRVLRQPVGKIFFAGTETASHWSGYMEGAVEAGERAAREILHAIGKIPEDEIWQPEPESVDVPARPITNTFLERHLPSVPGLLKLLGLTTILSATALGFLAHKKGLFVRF
Kind of assay: In vitro inhibitory activity against monoamine oxidase B (MAO-B) in rat brain homogenate. Format: tissue-based.

As a reminder, the IC50 is the concentration at which inhibition is half-maximal. Higher therefore signals lower potency. The compound `Cc1ccc(COc2ccc3c(C)c(C)c(=O)oc3c2)cc1` yielded an IC50 of 900 pM.
